# Values quoted from earlier work in patent publication US20120046286A1, “Novel Compounds” (priority 2009, published 2012).
# By UniProt entry, the sequences of proteins in these tests, tags left out.
# UniProt P68400, whole entry: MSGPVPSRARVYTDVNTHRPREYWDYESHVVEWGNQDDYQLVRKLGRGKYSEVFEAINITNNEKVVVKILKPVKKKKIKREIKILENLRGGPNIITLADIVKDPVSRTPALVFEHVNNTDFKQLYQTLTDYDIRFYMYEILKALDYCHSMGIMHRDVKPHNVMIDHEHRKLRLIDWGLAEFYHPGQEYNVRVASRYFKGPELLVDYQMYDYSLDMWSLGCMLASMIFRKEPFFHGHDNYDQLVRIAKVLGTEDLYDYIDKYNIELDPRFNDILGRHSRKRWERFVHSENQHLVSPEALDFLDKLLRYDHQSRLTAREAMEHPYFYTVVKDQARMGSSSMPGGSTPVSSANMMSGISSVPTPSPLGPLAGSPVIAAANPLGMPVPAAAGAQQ
# Assays:
# [1] = molecular target: CK2 protein kinase (Homo sapiens, UniProt P68400); details: read-out: IC50 on CK2 protein kinase
# [2] = tested on: Class I PI3-kinases; details: Fruman et al. 1998; read-out: IC50 against each of the Class I PI3-kinases
smiles,measurement,setting,value
O=c1cc(N2CCOCC2)oc2c(-c3ccccc3)cccc12 [LY294002],IC50,[1],5 to 10 µM
same,IC50,[2],15 to 20 µM
